# Experimental data from the supplement of paper PMC3334620.
# Over roughly 33,000 sequences, “E-score (-0.5 to 0.5)” has its median near -0.015; the highest 2% begin near 0.3. This is one part of the list.
# Molecular target: T1, Abf1 (UniProt P14164)
# T1 sequence: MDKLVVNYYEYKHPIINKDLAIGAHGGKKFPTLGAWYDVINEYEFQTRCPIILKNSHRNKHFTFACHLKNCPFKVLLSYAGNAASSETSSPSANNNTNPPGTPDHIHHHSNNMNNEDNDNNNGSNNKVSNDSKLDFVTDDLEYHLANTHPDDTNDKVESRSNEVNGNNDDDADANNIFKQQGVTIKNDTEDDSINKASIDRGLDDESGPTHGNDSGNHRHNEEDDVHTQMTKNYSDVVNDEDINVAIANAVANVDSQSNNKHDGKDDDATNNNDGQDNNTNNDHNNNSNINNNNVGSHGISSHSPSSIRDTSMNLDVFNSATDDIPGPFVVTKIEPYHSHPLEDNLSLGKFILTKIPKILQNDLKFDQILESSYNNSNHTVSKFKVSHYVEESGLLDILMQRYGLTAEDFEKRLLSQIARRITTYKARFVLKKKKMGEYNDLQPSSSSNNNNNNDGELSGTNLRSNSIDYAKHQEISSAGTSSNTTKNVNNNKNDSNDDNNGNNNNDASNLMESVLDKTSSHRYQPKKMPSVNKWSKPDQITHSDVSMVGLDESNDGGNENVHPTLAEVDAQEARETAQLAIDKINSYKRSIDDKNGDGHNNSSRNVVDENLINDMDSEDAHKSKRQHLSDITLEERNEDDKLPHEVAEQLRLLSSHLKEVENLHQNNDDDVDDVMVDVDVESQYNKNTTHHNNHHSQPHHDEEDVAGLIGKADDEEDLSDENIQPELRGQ
# Assay: PBM E-score (8-mer binding enrichment) (E-score (-0.5 to 0.5)); higher = stronger / more preferred TF binding
# Details: protein concentration: 200 nM; construct: GST-full length
# Protocol: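 Universal 'all 10-mer' protein binding microarrays (Agilent AMADID 015681) probed with GST-tagged S. cerevisiae TFs (full-length or DBD) made by in vitro transcription/translation (PURExpress), about 100-200 nM. Bound TF was detected with fluorescent anti-GST. Each ungapped 8-mer (which stands for itself and its reverse complement) is scored by the PBM enrichment score (E-score), a modified Wilcoxon-Mann-Whitney statistic from -0.5 to +0.5, computed with the Universal PBM Analysis Suite. Scale: above 0.35 generally sequence-specific binding.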
row,Sequence,PBM E-score
1,AATGGGGT,-0.169
2,CTGGAGCC,-0.191
3,ACCCCGGT,-0.213
4,CCTACAGA,-0.109
5,ATCCTAGG,-0.211
6,ATTTAGGC,-0.0483
7,AGCACACC,-0.13
8,AACCAAAC,-0.0941
9,ACCAAAAA,0.133
10,CAGATCTC,0.0205
11,AGGCTCCC,-0.233
12,ATCGTGCC,0.276
13,TCCAACCA,-0.111
14,ATCTAGGG,0.122
15,GAGTGAAA,-0.117
16,GACGTCTC,0.148
17,CCTTGCAC,-0.0394
18,CTGAGCAA,-0.0714
19,AGCCGAAG,-0.0813
20,GAGCGTAC,-0.0668
21,AGCGATTA,0.0361
22,ATTGCCAC,-0.0683
23,GAACGTTC,0.107
24,CTGAAAAG,-0.176
25,ATCCATGA,-0.0222

row,Sequence,PBM E-score
1,CAGGACCA,-0.0331
2,CCGTGGCC,-0.214
3,CCCTTCGG,-0.279
4,AAGGCTCG,-0.0968
5,ACTACCGC,0.0527
6,CAACCTGC,-0.131
7,ACCGCGGC,-0.037
8,TGCCTCAA,-0.124
9,AGACTCCC,-0.11
10,CACTCCAC,-0.165
11,ATCTAGGC,-0.188
12,TCACGAAA,0.286
13,CGCCGGCC,-0.248
14,ACGCTTCG,-0.0404
15,AGACTCCT,-0.247
16,CGTCTTTC,0.0707
17,ACTTTCTG,0.0859
18,CGACGAAC,0.168
19,CGCTTATA,0.189
20,GCAGTAGA,-0.0802
21,AGATGCCC,-0.144
22,CTGTGTCA,-0.119
23,AAGCAAAG,-0.094
24,CGCGATCA,0.199
25,CCTATTAC,-0.0667

row,Sequence,PBM E-score
1,CACCTCTG,-0.0203
2,ACGACCCT,-0.0266
3,AGGTGGTA,0.0995
4,ACGTTTCT,-0.0999
5,GCGAATGA,0.173
6,AATCCAAC,-0.0279
7,CTCTCCAC,-0.165
8,AGGCTGCC,-0.182
9,TATGTTCA,0.0909
10,CATACACC,-0.164
11,AACGTTGA,-0.00525
12,TGCACCAA,-0.161
13,AACACACG,0.0217
14,CGATTGTA,-0.0439
15,ATTGCCTC,0.0247
16,CAAGGGTA,-0.0788
17,AGCTAAAT,0.156
18,GAAAACTA,-0.0964
19,ATATGGCC,-0.214
20,CGGAGAGC,-0.156
21,CGGGCGTC,-0.198
22,CTCGATTA,0.0265
23,GCAAGGCA,-0.119
24,GGAAACAC,0.101
25,ACGTGGCT,-0.145

# Some values from the results shown.
# GCAAGGCA – PBM E-score: -0.119
# CTCTCCAC – PBM E-score: -0.165
# CGGAGAGC – PBM E-score: -0.156
# AGGTGGTA – PBM E-score: 0.0995

# The listing continues.

row,Sequence,PBM E-score
1,AGAGTTGC,-0.03
2,GCAGATGC,-0.106
3,TTGCTAAA,-0.0249
4,GTCCGCCA,-0.239
5,AATGCTTG,-0.0574
6,ACATTGTA,0.0682
7,TCGTTGCA,0.261
8,GGCCACAC,-0.0874
9,TAACAAAA,0.168
10,CACAGGCG,-0.275
11,AAGCCAAT,-0.111
12,ACTGGTAA,0.0626
13,CATTTCAG,-0.00912
14,GCCGCAGA,-0.0113
15,GCTCGCCA,-0.0326
16,AGCAGTTG,-0.119
17,AAACGTGA,0.125
18,GCTCCCAA,-0.196
19,GACTAAAA,0.0432
20,AACTTACC,0.0558
21,ACGTATAG,0.186
22,CTAACAAC,0.0908
23,GTTTCCAA,-0.0169
24,ATGCGCAG,-0.106
25,ATAGGATA,0.107

row,Sequence,PBM E-score
1,AGTCCCTA,0.0654
2,GGGTCAAA,-0.135
3,GGAGCAAA,-0.207
4,ACGGCGGG,0.106
5,CGGGGCGC,-0.295
6,CCAAACCC,0.0472
7,AACAGGCC,-0.204
8,ATGTAATG,0.204
9,TTCAGAAA,0.0364
10,CAAGCCTC,-0.348
11,CGAATATA,0.0491
12,CGATCAGA,-0.00274
13,AGTACTTG,0.0251
14,TAATTGGA,0.141
15,AAGTGATA,0.39
16,AAGTTTCG,-0.059
17,ACCTCAAT,-0.00184
18,TAAAATCA,0.216
19,CGACCGCC,-0.168
20,CGGGCACA,-0.00948
21,GCCGATAA,-0.0504
22,CTCCAGGA,-0.0722
23,CACGGAGA,0.024
24,AACATGTT,0.0588
25,GCAGGGGC,-0.286

row,Sequence,PBM E-score
1,GTCTGATA,-0.0819
2,AGAAACCG,-0.0801
3,CGCTCTAC,0.0668
4,TATTGGAA,0.0784
5,ACTTTACA,0.0325
6,AGGCTCGG,-0.198
7,CAGCGCAC,-0.111
8,ATTGCCGG,-0.103
9,CCCGACTA,-0.112
10,CGGATAAA,0.164
11,ATTTGACA,0.205
12,CCATCCGA,-0.0164
13,ATAATCAA,0.0595
14,TCGGGAAA,0.118
15,GTCTAATA,-0.0369
16,TATGATAA,0.258
17,AAACGCAT,-0.185
18,CTAAGGGC,-0.187
19,GCAATTTA,0.0461
20,AGAGTGCC,-0.048
21,CGGCGGAG,0.0184
22,CCTGCTCG,-0.306
23,CTCGACGA,0.168
24,CTCAGGGA,-0.225
25,GCCAATCC,-0.133

# Rewritten with bars between the fields: entries from further up
row | Sequence | PBM E-score
10 | CGGATAAA | 0.164
11 | ATTTGACA | 0.205
12 | CCATCCGA | -0.0164

# The listing continues:

row,Sequence,PBM E-score
1,AAAGTAGA,-0.0458
2,GCACTGGA,-0.0511
3,GATCGCTA,0.157
4,ATGCGGCA,-0.175
5,GTTTTTGA,0.17
6,ATGTACTC,-0.0861
7,ACGGCATC,0.203
8,ACCCAATG,-0.109
9,AACTTCGT,0.0012
10,CCCACCCG,-0.0134
11,GTTGTGCA,-0.143
12,CCGGTGGC,-0.29
13,AAGACGGT,0.165
14,ACCTTATC,0.0925
15,GCCTTCTA,-0.057
16,AGCCTCAA,-0.107
17,AAGGAATC,0.0406
18,GTTAGCGA,0.32
19,ACAGGCAG,-0.0782
20,ACACCTGA,-0.113
21,CTCCGCTC,-0.2
22,ACACGGCA,0.294
